# Results from one PubChem assay

The results are deposited in PubChem (AID1053133; Broad Institute, 2014).

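Plate-reader measure of the Venus reporter marking one vaccinia stage in infected cells (the cell line is not named here); read time unknown. The test concentration is not given here. Percent change in Venus reporter signal; lower (more negative) values mean stronger inhibition of that viral stage.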

Values are in %. The controls that fix the scale are not given here. Common to all entries: measured here: Venus reporter, other viral stage. Part of the compounds only, not a random draw; the main read-out is not listed here.

SMILES | activity change (Venus) (%)
O=C(C[C@@H]1CC[C@H]2[C@@H](COC[C@H](O)CN2C(=O)Nc2ccc(Cl)c(Cl)c2)O1)NCc1ccc(Cl)cc1 | -58.02
C/C=C/c1ccc2c(c1)O[C@@H](CN(C)Cc1ccc(F)cc1)[C@@H](C)CN([C@@H](C)CO)S2(=O)=O | -29.51
COc1ccc([Si](C)(C)[C@@H]2[C@@H](CCO)O[C@]3(C(=O)N(Cc4ccccc4)c4ccc(N5CCOC5=O)cc43)[C@H]2C)cc1 | -27.18
C[C@@H]1CN([C@H](C)CO)S(=O)(=O)c2ccc(/C=C/c3ccccc3)cc2O[C@H]1CN(C)Cc1cccnc1 | -60.92
C[C@@H]1CN([C@H](C)CO)S(=O)(=O)c2ccc(C#Cc3ccccc3)cc2O[C@@H]1CN(C)C(=O)CN(C)C | -52.73
C[C@@H]1CCCCO[C@@H](CN(C)S(=O)(=O)c2ccc(Cl)cc2)[C@H](C)CN([C@H](C)CO)C(=O)c2cc(NC(=O)CCC(F)(F)F)ccc2O1 | -36.29
C[C@@H]1CCCCO[C@H](CN(C)CC2CCCCC2)[C@H](C)CN([C@@H](C)CO)C(=O)c2cc(NC(=O)Cc3ccccc3)ccc2O1 | -62.48
COc1cccc(C#Cc2ccc([C@@H]3[C@@H](CO)N4C(=O)CN(C(=O)Cc5cccnc5)C[C@H]34)cc2)c1 | -35.75
C[C@H]1CCCCO[C@H](CN(C)C(=O)NC2CCCCC2)[C@@H](C)CN([C@@H](C)CO)C(=O)c2cc(NC(=O)NC3CCCCC3)ccc2O1 | -41.11
COc1ccc(S(=O)(=O)N2C[C@@H](O)COC[C@@H]3O[C@H](CC(=O)NCc4ccc(Cl)c(Cl)c4)CC[C@H]32)cc1 | -43.47
C[C@H]1CN([C@@H](C)CO)S(=O)(=O)c2ccc(Br)cc2O[C@@H]1CN(C)Cc1cccc(F)c1 | -45.13
CN1C(=O)c2cc(NC(=O)c3cccc(F)c3)ccc2OC[C@H]2O[C@H](CC(=O)NCC3CCCCC3)CC[C@@H]21 | -27.41
C[C@@H]1CN([C@H](C)CO)S(=O)(=O)c2ccc(/C=C/c3ccccc3)cc2O[C@@H]1CN(C)C(=O)c1ccccc1 | -41.68
CNC[C@@H]1Oc2cc(C#CCC(C)C)ccc2S(=O)(=O)N([C@@H](C)CO)C[C@H]1C | -29.47
C[C@H]1CN([C@@H](C)CO)C(=O)c2cccc(NC(=O)CCCCCC(=O)Nc3ccccc3N)c2O[C@H]1CN(C)Cc1ccc(C(F)(F)F)cc1 | -79.97
C[C@H]1CN([C@@H](C)CO)C(=O)c2c(c3ccccc3n2C)-c2ccccc2CO[C@H]1CN(C)S(=O)(=O)c1ccccc1C#N | -28.53
C[C@H](CO)N1C[C@H](C)[C@@H](CN(C)C(=O)Cc2ccccc2)Oc2ncc(C#Cc3ccccc3F)cc2C1=O | -41.06
N#C[C@H]1[C@@H](c2ccc(C#Cc3ccccc3F)cc2)[C@H](CO)N1C(=O)C1CCC1 | -42.87
C[C@@H]1CN([C@@H](C)CO)C(=O)c2ccccc2-c2ccccc2CO[C@@H]1CN(C)Cc1ccc2c(c1)OCCN2C | -29.92
C[C@H](CO)N1C[C@H](C)[C@H](CN(C)C(=O)C2CCCCC2)OCCCC[C@H](C)Oc2ccc(NS(=O)(=O)c3ccc(F)cc3)cc2C1=O | -48.32
Cc1ccc(S(=O)(=O)N[C@H]2CC[C@@H](CCn3cc(-c4ccccc4F)nn3)O[C@@H]2CO)cc1 | -28.72
COc1ccc(C#Cc2cnc3c(c2)C(=O)N([C@H](C)CO)C[C@@H](C)[C@H](CN(C)C(=O)c2ccccc2F)O3)cc1 | -42.44
CN1c2ccc(-c3cccc(F)c3)cc2[C@H]2[C@H](CCN2C(=O)Nc2ccccc2F)[C@H]1CO | -60.54
COCCCNC(=O)[C@@]1(Cc2ccccc2CN=[N+]=[N-])N=C(c2ccc(OCCCO)cc2)O[C@H]1c1ccccc1 | -33.15
C[C@@H]1CCCCO[C@H](CN(C)S(=O)(=O)c2ccccc2)[C@H](C)CN([C@@H](C)CO)C(=O)c2cc(NS(=O)(=O)c3ccc(Cl)cc3)ccc2O1 | -27.64
O=S(=O)(c1ccc(F)cc1)N1CCCCN2[C@H](CO)[C@H](c3ccc(-c4ccccc4)cc3)[C@H]2C1 | -43.91
COc1ccc(C#Cc2ccc([C@@H]3[C@H](CO)N4CCCCN(C(=O)Cc5ccccc5)C[C@@H]34)cc2)cc1 | -41.83
CC(C)CC#Cc1ccc([C@H]2[C@H]3CN(C(=O)Nc4cc(F)ccc4F)CC(=O)N3[C@H]2CO)cc1 | -35.66
C[C@@H]1CN([C@@H](C)CO)C(=O)c2c(c3ccccc3n2C)-c2ccccc2CO[C@H]1CN(C)Cc1cccc(C(F)(F)F)c1 | -61.08
Cc1ccc(-c2ccc([C@@H]3[C@H](CO)N4CCCCN(C(=O)Nc5cccc(F)c5)C[C@@H]34)cc2)cc1 | -87.21
C[C@H](CO)N1C[C@H](C)[C@@H](CN(C)Cc2ccc(-c3ccccc3)cc2)Oc2c(NC(=O)c3nc4ccccc4s3)cccc2C1=O | -31.16
COc1ccccc1NC(=O)N1CCCCN2[C@H](CO)[C@H](c3ccc(-c4cccc(C)c4)cc3)[C@H]2C1 | -64.67
C[C@@H]1CN([C@@H](C)CO)C(=O)c2cc(C#Cc3ccc(F)cc3)cnc2O[C@H]1CN(C)CC1CCOCC1 | -30.99
C[C@@H]1CN([C@H](C)CO)S(=O)(=O)c2ccc(/C=C/c3ccccc3)cc2O[C@H]1CN(C)C(=O)NC1CCCCC1 | -71.7
C[C@H](CO)N1C[C@H](C)[C@@H](CN(C)S(=O)(=O)c2ccccc2)Oc2ncc(/C=C/c3ccccc3)cc2C1=O | -31.35
COc1ccc2c3c([nH]c2c1)[C@@H](CO)N(C(=O)Nc1ccc(F)cc1)CC31CCN(C(=O)c2ccccc2F)CC1 | -50.23
COc1ccc2c3c(n(C)c2c1)[C@H](CO)N(C(=O)Nc1ccccc1F)CC31CN(C(=O)c2ccccc2F)C1 | -22.28
COc1cccc(S(=O)(=O)N(C)C[C@H]2Oc3cc(C4=CCCCC4)ccc3S(=O)(=O)N([C@@H](C)CO)C[C@@H]2C)c1 | -45.52
CCCNC(=O)N(C)C[C@H]1Oc2cc(C#Cc3cccc(F)c3)ccc2S(=O)(=O)N([C@@H](C)CO)C[C@@H]1C | -59.21
O=C(c1cccc(F)c1)N1CCCCN2[C@@H](CO)[C@H](c3ccc(-c4ccc(F)cc4)cc3)[C@@H]2C1 | -29.49
Cc1noc(C)c1S(=O)(=O)Nc1ccc2c(c1)CC(=O)N([C@@H](C)CO)C[C@@H](C)[C@H](CN(C)Cc1ccc(-c3ccccc3)cc1)O2 | -41.57
O=C(Cc1cccnc1)N1CC(=O)N2[C@H](C1)[C@@H](c1ccc(C#CC3CCCC3)cc1)[C@@H]2CO | -27.68
COc1ccc(CN(C)C[C@H]2Oc3ccc(NS(=O)(=O)c4ccc(Cl)cc4)cc3CC(=O)N([C@H](C)CO)C[C@@H]2C)cc1 | -39.98
C[C@H]1CN([C@@H](C)CO)C(=O)c2cccc(NC(=O)Nc3ccc(F)cc3)c2O[C@H]1CN(C)C(=O)Nc1ccccc1 | -27.7
Cc1ccc(S(=O)(=O)Nc2ccc3c(c2)C(=O)N([C@@H](C)CO)C[C@@H](C)[C@@H](CN(C)Cc2ccc(-c4ccccc4)cc2)O3)cc1 | -34.9
Cc1ccc(S(=O)(=O)N2CC[C@@H]3[C@H](CO)N(C)c4ccc(-c5ccc(C#N)cc5)cc4[C@@H]32)cc1 | -29.87
O=C(C1CCC1)N1CC(=O)N2[C@H](C1)[C@H](c1ccc(C#Cc3cccc(F)c3)cc1)[C@@H]2CO | -95.62
C[C@@H]1CN([C@@H](C)CO)C(=O)Cc2cc(NC(=O)Cc3ccccc3)ccc2O[C@@H]1CN(C)Cc1ccc(-c2ccccc2)cc1 | -47.57
C[C@@H]1CN([C@H](C)CO)C(=O)Cc2cc(N(C)C)ccc2O[C@@H]1CN(C)Cc1ccc(C(=O)Nc2ccccc2N)cc1 | -77.62
C[C@H](CO)N1C[C@H](C)[C@H](CN(C)Cc2ccc(Oc3ccccc3)cc2)OCc2ccccc2-c2c(n(C)c3ccccc23)C1=O | -21.73
Cc1ccc(S(=O)(=O)Nc2ccc3c(c2)C(=O)N([C@@H](C)CO)C[C@H](C)[C@H](CN(C)Cc2ccc4c(c2)OCO4)OCCCC[C@@H](C)O3)cc1 | -49.68
Cc1ccc(S(=O)(=O)Nc2ccc3c(c2)C(=O)N([C@@H](C)CO)C[C@H](C)[C@@H](CN(C)C(=O)NC2CCCCC2)OCCCC[C@@H](C)O3)cc1 | -40.52
Cc1ccc(S(=O)(=O)Nc2ccc3c(c2)CC(=O)N([C@@H](C)CO)C[C@@H](C)[C@H](CN(C)Cc2ccccc2)O3)cc1 | -40.58
C[C@@H]1CN([C@@H](C)CO)S(=O)(=O)c2ccc(C#CCC3CCCC3)cc2O[C@@H]1CN(C)C(=O)c1ccccn1 | -34.76
COc1ccc(CN(C)C[C@H]2OCCCC[C@H](C)Oc3ccc(NC(=O)Nc4ccc5c(c4)OCO5)cc3C(=O)N([C@H](C)CO)C[C@@H]2C)cc1 | -33.6
C[C@H](CO)N1C[C@H](C)[C@@H](CN(C)C(=O)NC2CCCCC2)Oc2ccc(NC(=O)Nc3ccc(C(F)(F)F)cc3)cc2CC1=O | -31.11